No constants are given. Whether binding was seen depends on the method and setting. For part of these data: Binding seen in cells or lysates may run through a third protein. Some binding calls cover weakened binding; strength is not graded here. Where a sequence is shown, tags or fusion partners need not be part of it. One block for each molecule: values may come before it.
Key:
[1] = target: T1, HA-fused JAZ4 (Arabidopsis thaliana) (UniProt Q58G47); assay: co-IP; Myc-WRKY75 and HA-JAZ co-expressed 48 h in N. benthamiana (tobacco) leaves; protein extracts, anti-HA antibody and A/G-agarose beads, blot with anti-Myc
T1 sequence: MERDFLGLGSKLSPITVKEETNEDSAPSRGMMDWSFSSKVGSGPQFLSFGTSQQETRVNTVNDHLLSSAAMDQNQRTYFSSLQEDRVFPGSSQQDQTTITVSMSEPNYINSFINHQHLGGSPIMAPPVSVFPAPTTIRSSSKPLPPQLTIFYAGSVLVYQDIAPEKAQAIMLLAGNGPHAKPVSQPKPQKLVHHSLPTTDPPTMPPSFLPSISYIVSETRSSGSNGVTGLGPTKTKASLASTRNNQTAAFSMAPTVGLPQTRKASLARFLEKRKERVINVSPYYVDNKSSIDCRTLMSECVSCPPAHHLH

Sequences of proteins named here, by UniProt entry; tags and fusion partners are left off.
UniProt Q9FYA2: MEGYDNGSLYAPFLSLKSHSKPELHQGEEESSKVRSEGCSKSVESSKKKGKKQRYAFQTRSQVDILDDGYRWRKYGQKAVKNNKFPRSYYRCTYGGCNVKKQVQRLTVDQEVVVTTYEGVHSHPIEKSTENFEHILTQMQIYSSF

[2] = target: T2, HA-fused JAZ8 (Arabidopsis thaliana) (UniProt Q8LBM2); assay: as above
T2 sequence: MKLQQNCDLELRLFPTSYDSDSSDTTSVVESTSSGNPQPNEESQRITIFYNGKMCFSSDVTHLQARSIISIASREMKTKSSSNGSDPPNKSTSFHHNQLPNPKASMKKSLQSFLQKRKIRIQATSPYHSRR

[3] = target: WRKY75 fused to the Gal4 DNA binding domain (BD-WRKY75) (Arabidopsis thaliana) (UniProt Q9FYA2); assay: two-hybrid; directed test: bait (pGBKT7) and prey (pGADT7) vectors co-transformed into yeast; growth on synthetic dropout medium lacking Leu, Trp, His and Ade
[4] = target: WRKY75 fused to the C-terminal portion of YFP (WRKY75-cYFP) (Arabidopsis thaliana) (UniProt Q9FYA2); assay: split reporter; BiFC: JAZ-nYFP and WRKY75-cYFP co-infiltrated into N. benthamiana leaves by Agrobacterium; YFP read by confocal microscopy 48 h after infiltration

Molecule: Myc-fused WRKY75 (from UniProt Q9FYA2 1-145)
binding [1]: binds
binding [2]: binds

B4: JAZ4 (yeast two-hybrid prey) (protein, UniProt Q58G47 1-310)
chain: T1 sequence
binding [3]: binds weakly

B5: JAZ8 fused to the N-terminal portion of YFP (JAZ8-nYFP) (protein, UniProt Q8LBM2 1-131)
chain: T2 sequence
binding [4]: binds

More lines, now with the values ahead:

binding [3]: binds weakly
B1: JAZ7 (yeast two-hybrid prey) (protein, UniProt O64687 1-148)
chain: MIIIIKNCDKPLLNFKEMEMQTKCDLELRLLTSSYDSDFHSSLDESSSSEISQPKQESQILTIFYNGHMCVSSDLTHLEANAILSLASRDVEEKSLSLRSSDGSDPPTIPNNSTRFHYQKASMKRSLHSFLQKRSLRIQATSPYHRYR

binding [3]: binds
B2: the 83 N-terminal residues of JAZ8 (containing the ZIM domain), fused to the AD domain of pGADT7 (domain or fragment, UniProt Q8LBM2 1-83)
chain: MKLQQNCDLELRLFPTSYDSDSSDTTSVVESTSSGNPQPNEESQRITIFYNGKMCFSSDVTHLQARSIISIASREMKTKSSSN

binding [4]: binds
B3: JAZ4 fused to the N-terminal portion of YFP (JAZ4-nYFP) (protein, UniProt Q58G47 1-310)
chain: T1 sequence

binding [3]: binds
B6: JAZ8, full length, fused to the AD domain of pGADT7 (protein, UniProt Q8LBM2 1-131)
chain: T2 sequence

binding [3]: binds weakly
B7: JAZ9 (yeast two-hybrid prey) (protein, UniProt Q8W4J8 1-267)
chain: MERDFLGLSDKQYLSNNVKHEVNDDAVEERGLSTKAAREWGKSKVFATSSFMPSSDFQEAKAFPGAYQWGSVSAANVFRRCQFGGAFQNATPLLLGGSVPLPTHPSLVPRVASSGSSPQLTIFYGGTISVFNDISPDKAQAIMLCAGNGLKGETGDSKPVREAERMYGKQIHNTAATSSSSATHTDNFSRCRDTPVAATNAMSMIESFNAAPRNMIPSVPQARKASLARFLEKRKERLMSAMPYKKMLLDLSTGESSGMNYSSTSPT

— paper PMC7904156
